Source: publication doi:10.1101/2021.03.09.434543
Results are given in words; binding and its absence hold for the method and conditions named. Binding can be weak; no strength is given.

By UniProt entry, the sequences of proteins in these tests, tags left out.
UniProt Q8VWH2: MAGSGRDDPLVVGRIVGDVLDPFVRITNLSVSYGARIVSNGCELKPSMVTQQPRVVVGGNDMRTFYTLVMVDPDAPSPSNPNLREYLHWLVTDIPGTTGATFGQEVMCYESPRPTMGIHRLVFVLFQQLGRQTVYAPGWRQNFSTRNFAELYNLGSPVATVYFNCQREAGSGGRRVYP
UniProt Q93WI9: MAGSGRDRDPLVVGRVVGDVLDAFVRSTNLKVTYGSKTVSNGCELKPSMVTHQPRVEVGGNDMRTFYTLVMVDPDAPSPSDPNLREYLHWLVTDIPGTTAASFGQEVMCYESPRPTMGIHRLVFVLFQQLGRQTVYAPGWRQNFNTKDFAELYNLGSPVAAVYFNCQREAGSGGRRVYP

biological target: OsbZIP62/OsFD7, yeast two-hybrid fusion (rice (Oryza sativa)) (UniProt B7F384); assay: two-hybrid

binding | Substance
binds | OsFTL1, yeast two-hybrid fusion (from UniProt B7ELI3)
binds | RFT1 (OsFTL3), yeast two-hybrid fusion (from UniProt Q8VWH2 1-178)
binds | Hd3a (OsFTL2), yeast two-hybrid fusion (from UniProt Q93WI9 1-179)
